The list shows a part of the results.
What was measured:
Experiment in all cases: log2 fold change, soluble protein after heating vs DMSO (PISA); higher = thermal stabilisation; K562 lysate, 10 uM; active = over 0.2 and 3.5 SD of the protein, either way, in both replicates (recomputed)
lapatinib = compound: CS(=O)(=O)CCNCc1ccc(-c2ccc3ncnc(Nc4ccc(OCc5cccc(F)c5)c(Cl)c4)c3c2)o1 [lapatinib]
Outline: (§1)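 K562 pellets were dounce-homogenised in PBS pH 7.4 with 1 mM MgCl2, and the crude extract at 1 mg/mL protein was treated with 10 μM compound for 30 min. Aliquots were heated for 3 min across 48°C-58°C, pooled, and brought to 0.5% NP-40 at 4°C; soluble protein was the supernatant after 21,000xg for 90 min. Soluble protein was quantified by TMTpro 16plex LC-MS/MS with channel sums equalised, and reported as log2 fold change in thermal stability against DMSO controls, with values from duplicates.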

By UniProt entry, the sequences of proteins in these tests, tags left out. Where a name states a change or a piece, a line headed by the entry shows the natural chain unless it says otherwise.
UniProt Q5JU69: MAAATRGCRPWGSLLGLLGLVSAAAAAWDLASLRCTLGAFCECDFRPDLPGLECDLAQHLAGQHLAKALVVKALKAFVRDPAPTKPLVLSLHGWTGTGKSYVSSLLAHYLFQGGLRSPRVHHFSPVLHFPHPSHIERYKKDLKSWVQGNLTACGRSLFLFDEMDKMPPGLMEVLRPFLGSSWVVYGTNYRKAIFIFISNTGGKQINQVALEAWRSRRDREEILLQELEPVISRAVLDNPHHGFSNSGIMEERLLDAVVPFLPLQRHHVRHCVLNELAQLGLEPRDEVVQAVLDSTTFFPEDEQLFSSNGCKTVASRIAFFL
UniProt O94842: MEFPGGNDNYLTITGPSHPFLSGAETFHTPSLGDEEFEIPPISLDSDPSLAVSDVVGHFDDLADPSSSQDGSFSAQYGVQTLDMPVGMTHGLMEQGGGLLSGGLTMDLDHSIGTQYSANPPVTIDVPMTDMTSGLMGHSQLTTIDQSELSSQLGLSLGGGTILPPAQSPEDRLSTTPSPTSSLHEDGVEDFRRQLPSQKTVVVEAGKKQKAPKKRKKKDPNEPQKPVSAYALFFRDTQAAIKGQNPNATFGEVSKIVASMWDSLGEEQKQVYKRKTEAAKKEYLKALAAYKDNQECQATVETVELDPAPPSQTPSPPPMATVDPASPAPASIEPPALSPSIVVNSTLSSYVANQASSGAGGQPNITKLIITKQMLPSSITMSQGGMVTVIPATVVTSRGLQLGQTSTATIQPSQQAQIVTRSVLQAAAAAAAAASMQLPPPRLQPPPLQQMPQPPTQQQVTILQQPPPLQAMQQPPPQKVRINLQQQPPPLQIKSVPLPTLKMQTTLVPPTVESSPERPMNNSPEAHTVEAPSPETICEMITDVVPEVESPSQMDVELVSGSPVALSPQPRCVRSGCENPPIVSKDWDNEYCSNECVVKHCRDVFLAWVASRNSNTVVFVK
UniProt P57088: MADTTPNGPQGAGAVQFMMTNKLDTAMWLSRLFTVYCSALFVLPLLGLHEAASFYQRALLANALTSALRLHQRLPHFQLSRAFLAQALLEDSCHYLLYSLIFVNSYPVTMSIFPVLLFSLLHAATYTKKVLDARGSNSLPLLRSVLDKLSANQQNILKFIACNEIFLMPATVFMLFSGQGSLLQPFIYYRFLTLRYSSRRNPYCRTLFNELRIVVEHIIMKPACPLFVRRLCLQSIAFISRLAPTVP
UniProt Q9NYL9: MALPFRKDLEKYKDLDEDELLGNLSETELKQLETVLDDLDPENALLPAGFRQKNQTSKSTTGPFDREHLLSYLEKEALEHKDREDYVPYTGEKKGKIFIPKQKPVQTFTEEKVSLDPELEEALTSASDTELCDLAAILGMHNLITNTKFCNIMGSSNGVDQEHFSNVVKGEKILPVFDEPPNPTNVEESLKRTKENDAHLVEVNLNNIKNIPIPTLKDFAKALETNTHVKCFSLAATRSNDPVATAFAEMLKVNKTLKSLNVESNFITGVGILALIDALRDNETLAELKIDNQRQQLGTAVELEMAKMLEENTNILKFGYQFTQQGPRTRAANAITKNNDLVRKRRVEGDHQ
UniProt Q13472: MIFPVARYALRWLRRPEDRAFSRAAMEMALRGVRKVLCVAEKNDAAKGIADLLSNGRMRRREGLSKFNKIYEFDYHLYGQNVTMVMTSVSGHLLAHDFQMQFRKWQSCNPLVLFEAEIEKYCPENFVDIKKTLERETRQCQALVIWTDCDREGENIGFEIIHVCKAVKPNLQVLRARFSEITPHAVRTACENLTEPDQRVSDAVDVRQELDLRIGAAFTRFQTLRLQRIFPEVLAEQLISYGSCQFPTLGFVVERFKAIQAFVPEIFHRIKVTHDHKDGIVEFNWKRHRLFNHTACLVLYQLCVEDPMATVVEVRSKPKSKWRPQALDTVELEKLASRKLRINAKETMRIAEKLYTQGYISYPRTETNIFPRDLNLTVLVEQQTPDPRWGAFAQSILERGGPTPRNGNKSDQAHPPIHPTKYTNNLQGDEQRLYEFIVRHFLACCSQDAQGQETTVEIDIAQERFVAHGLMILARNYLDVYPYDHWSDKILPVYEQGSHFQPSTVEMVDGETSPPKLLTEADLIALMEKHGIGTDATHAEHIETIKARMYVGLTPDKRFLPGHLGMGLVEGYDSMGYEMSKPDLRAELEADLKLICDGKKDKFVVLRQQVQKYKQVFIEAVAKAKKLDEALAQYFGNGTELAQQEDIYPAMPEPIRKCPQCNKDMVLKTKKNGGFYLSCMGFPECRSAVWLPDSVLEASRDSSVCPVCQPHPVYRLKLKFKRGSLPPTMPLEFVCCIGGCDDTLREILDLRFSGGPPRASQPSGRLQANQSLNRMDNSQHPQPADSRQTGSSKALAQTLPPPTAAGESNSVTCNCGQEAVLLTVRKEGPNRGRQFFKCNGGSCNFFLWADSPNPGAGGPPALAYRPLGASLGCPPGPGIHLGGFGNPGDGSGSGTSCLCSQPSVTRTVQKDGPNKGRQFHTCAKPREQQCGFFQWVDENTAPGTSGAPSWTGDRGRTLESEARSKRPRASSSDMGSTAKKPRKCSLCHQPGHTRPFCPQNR
UniProt Q9NXH8: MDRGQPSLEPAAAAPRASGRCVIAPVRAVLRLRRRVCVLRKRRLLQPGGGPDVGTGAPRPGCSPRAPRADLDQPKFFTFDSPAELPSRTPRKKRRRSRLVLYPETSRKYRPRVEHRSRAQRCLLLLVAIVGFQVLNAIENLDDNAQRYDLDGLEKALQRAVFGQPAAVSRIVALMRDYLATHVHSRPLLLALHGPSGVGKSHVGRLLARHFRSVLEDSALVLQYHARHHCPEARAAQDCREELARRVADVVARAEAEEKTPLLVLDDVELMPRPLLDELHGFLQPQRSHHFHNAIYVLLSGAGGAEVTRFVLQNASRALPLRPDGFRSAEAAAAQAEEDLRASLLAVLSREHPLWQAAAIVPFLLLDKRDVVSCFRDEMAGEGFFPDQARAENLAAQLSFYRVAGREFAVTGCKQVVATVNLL
UniProt O60784, whole entry, looked up: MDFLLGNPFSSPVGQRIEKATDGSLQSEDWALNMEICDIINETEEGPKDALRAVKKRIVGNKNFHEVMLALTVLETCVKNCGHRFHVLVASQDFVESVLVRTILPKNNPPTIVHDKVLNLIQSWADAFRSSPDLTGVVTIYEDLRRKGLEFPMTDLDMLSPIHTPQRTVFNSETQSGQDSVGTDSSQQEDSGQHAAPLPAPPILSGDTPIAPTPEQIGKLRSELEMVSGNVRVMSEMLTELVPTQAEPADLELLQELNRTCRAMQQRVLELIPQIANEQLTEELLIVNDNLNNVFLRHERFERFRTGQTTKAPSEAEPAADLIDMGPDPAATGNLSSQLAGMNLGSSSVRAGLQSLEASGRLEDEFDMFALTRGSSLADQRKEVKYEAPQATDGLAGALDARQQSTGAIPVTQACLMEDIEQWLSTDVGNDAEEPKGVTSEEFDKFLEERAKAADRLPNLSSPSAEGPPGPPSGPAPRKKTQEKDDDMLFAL
UniProt P06753, whole entry, looked up: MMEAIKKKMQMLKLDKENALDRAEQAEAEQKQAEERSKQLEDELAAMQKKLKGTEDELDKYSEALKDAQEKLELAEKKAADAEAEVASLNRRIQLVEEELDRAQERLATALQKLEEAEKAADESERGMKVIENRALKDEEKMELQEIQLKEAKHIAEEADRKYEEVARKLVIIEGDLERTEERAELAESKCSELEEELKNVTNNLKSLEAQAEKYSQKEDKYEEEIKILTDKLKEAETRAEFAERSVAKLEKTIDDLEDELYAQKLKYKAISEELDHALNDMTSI
UniProt P67936, whole entry, looked up: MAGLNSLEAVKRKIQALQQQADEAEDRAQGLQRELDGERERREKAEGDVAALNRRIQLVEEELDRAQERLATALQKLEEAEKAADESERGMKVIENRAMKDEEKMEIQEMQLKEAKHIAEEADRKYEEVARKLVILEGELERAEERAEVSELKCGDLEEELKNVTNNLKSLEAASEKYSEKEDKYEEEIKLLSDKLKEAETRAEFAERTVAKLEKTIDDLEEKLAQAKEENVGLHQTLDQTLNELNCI
UniProt A5PLL7: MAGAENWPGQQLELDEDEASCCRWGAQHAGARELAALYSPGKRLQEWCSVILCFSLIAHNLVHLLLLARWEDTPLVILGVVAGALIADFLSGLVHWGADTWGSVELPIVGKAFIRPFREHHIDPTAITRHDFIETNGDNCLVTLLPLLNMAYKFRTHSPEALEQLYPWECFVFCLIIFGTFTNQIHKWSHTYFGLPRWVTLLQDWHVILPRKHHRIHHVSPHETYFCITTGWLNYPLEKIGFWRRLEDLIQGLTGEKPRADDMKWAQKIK
UniProt O43399: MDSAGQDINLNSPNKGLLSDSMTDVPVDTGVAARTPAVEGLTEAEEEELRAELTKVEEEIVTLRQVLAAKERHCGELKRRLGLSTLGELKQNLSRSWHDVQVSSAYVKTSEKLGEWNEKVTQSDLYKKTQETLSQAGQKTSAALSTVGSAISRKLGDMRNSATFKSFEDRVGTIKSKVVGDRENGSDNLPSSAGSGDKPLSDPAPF
UniProt O14763, whole entry, looked up: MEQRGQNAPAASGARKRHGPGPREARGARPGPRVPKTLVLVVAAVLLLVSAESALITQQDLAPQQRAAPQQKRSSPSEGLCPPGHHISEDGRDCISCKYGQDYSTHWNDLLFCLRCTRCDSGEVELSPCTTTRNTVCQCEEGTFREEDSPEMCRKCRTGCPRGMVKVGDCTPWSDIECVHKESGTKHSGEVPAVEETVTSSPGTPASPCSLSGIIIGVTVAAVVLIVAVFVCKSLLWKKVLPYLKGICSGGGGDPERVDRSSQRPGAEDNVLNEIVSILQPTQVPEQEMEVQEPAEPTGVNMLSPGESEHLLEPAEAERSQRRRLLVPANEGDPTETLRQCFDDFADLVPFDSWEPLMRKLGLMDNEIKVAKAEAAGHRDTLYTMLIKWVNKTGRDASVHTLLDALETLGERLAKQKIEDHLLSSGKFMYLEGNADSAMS
UniProt O00220, whole entry, looked up: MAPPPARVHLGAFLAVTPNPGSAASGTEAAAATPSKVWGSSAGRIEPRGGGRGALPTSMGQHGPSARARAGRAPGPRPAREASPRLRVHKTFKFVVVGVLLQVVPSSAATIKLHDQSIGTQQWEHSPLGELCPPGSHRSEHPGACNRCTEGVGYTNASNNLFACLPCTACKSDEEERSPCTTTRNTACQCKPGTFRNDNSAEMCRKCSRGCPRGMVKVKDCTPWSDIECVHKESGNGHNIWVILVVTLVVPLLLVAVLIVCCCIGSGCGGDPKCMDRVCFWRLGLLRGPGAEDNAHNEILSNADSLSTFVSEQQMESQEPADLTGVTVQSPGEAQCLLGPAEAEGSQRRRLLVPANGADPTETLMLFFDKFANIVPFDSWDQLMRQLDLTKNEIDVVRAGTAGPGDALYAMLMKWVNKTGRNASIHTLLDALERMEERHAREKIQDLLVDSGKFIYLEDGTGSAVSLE
UniProt Q96S44: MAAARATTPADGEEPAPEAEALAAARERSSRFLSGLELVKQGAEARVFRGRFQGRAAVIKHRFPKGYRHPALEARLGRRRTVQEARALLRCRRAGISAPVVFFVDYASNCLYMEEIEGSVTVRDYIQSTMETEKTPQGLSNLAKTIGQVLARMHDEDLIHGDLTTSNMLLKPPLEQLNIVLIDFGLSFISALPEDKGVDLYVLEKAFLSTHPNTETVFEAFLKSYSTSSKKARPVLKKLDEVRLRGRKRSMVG
UniProt Q92973: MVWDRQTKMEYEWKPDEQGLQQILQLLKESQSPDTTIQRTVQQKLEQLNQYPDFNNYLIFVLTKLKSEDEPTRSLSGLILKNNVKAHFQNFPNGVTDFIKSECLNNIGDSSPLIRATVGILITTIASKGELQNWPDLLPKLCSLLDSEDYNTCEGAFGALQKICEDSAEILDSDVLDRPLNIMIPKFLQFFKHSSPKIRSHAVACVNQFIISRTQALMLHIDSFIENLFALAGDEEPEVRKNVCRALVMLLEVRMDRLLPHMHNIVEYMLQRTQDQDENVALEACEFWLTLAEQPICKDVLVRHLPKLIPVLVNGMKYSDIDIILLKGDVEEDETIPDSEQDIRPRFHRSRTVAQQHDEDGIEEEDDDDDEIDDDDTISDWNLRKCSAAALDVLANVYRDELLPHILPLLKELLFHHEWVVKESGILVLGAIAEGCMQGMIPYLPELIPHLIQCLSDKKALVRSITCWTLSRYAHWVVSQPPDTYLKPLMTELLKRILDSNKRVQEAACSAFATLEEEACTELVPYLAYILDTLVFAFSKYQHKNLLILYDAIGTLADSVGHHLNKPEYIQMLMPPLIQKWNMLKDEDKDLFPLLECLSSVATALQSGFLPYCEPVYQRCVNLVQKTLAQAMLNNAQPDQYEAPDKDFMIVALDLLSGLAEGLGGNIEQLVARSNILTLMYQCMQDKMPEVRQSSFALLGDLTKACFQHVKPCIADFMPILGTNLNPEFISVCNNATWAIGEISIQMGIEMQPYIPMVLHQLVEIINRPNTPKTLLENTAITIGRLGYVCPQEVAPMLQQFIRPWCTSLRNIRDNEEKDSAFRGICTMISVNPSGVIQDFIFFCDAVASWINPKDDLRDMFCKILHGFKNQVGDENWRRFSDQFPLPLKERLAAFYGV

pictilisib = compound: CS(=O)(=O)N1CCN(Cc2cc3nc(-c4cccc5[nH]ncc45)nc(N4CCOCC4)c3s2)CC1 [pictilisib]
Outline: as §1

crizotinib = compound: C[C@@H](Oc1cc(-c2cnn(C3CCNCC3)c2)cnc1N)c1c(Cl)ccc(F)c1Cl [crizotinib]
Outline: as §1

[1] = compound: C[C@H](C1=CC=C(C=C1)C(=O)NC2=C3C=CNC3=NC=C2)N
Outline: as §1

duvelisib = compound: C[C@H](Nc1ncnc2nc[nH]c12)c1cc2cccc(Cl)c2c(=O)n1-c1ccccc1 [duvelisib]
Outline: as §1

gandotinib = compound: Cc1cc(Nc2cc(CN3CCOCC3)c3nc(C)c(Cc4ccc(Cl)cc4F)n3n2)n[nH]1 [gandotinib]
Outline: as §1

tozasertib = compound: Cc1cc(Nc2cc(N3CCN(C)CC3)nc(Sc3ccc(NC(=O)C4CC4)cc3)n2)n[nH]1 [tozasertib]
Outline: as §1

doramapimod = compound: Cc1ccc(-n2nc(C(C)(C)C)cc2NC(=O)Nc2ccc(OCCN3CCOCC3)c3ccccc23)cc1 [doramapimod]
Outline: as §1

bafetinib = compound: Cc1ccc(NC(=O)c2ccc(CN3CC[C@H](N(C)C)C3)c(C(F)(F)F)c2)cc1Nc1nccc(-c2cncnc2)n1 [bafetinib]
Outline: as §1

[2] = compound: Cc1cccc(CC(=O)N2CCc3c2ccc(-c2cn(C)c4ncnc(N)c24)c3F)n1
Outline: as §1

nilotinib = compound: Cc1cn(-c2cc(NC(=O)c3ccc(C)c(Nc4nccc(-c5cccnc5)n4)c3)cc(C(F)(F)F)c2)cn1 [nilotinib]
Outline: as §1

[3] = compound: Cc1nc(Nc2n[nH]c3c2CN(C(=O)N[C@H](CN(C)C)c2ccccc2)C3(C)C)c2sccc2n1
Outline: as §1

dasatinib = compound: Cc1nc(Nc2ncc(C(=O)Nc3c(C)cccc3Cl)s2)cc(N2CCN(CCO)CC2)n1 [dasatinib]
Outline: as §1

[4] = compound: Cc1ncc(-c2ccnc(Nc3ccc(S(C)(=O)=O)cc3)n2)n1C(C)C
Outline: as §1

[5] = compound: Cn1cc(-c2ccc3c(c2)CCN3C(=O)Cc2cccc(C(F)(F)F)c2)c2c(N)ncnc21
Outline: as §1

quisinostat = compound: Cn1cc(CNCC2CCN(c3ncc(C(=O)NO)cn3)CC2)c2ccccc21 [quisinostat]
Outline: as §1

tipifarnib = compound: Cn1cncc1[C@@](N)(c1ccc(Cl)cc1)c1ccc2c(c1)c(-c1cccc(Cl)c1)cc(=O)n2C [tipifarnib]
Outline: as §1

[6] = compound: NC(=O)Nc1cc(-c2cccc(F)c2)sc1C(=O)N[C@H]1CCCNC1
Outline: as §1

[7] = compound: NC(=O)c1cnc(N[C@@H]2CCCC[C@@H]2N)nc1Nc1cccc(-n2nccn2)c1
Outline: as §1

[8] = compound: NC1(c2ccc(-c3nc4ccn5c(=O)[nH]nc5c4cc3-c3ccccc3)cc2)CCC1
Outline: as §1

Measured: log2 fold change

TOR2A (UniProt Q5JU69)
inactive: lapatinib 0.03 | pictilisib -0.008 | crizotinib -0.03 | [1] -0.154 | duvelisib 0.009 | gandotinib -0.059 | tozasertib 0.005 | doramapimod -0.111 | bafetinib -0.068 | [2] 0.009 | nilotinib 0.125 | [3] -0.025 | dasatinib -0.056 | [4] 0.135 | [5] 0.013 | quisinostat 0.051 | tipifarnib -0.049 | [6] -0.013 | [7] 0.057 | [8] 0.002

TOX4 (UniProt O94842)
active: [1] -0.259 | gandotinib 0.231
inactive: lapatinib 0.058 | pictilisib 0.025 | crizotinib -0.068 | duvelisib 0.06 | tozasertib -0.094 | doramapimod 0.041 | bafetinib -0.043 | [2] 0.189 | nilotinib -0.056 | [3] -0.019 | dasatinib 0.001 | [4] 0.073 | [5] 0.009 | quisinostat -0.018 | tipifarnib -0.02 | [6] -0.017 | [7] 0.017 | [8] 0.034

TMEM33 (UniProt P57088)
inactive: lapatinib -0.032 | pictilisib 0.012 | crizotinib -0.022 | [1] -0.034 | duvelisib -0.036 | gandotinib 0.067 | tozasertib -0.022 | doramapimod 0.011 | bafetinib -0.055 | [2] 0.019 | nilotinib 0.034 | [3] -0.007 | dasatinib 0.041 | [4] -0.006 | [5] -0.009 | quisinostat -0.02 | tipifarnib -0.049 | [6] 0.005 | [7] -0.011 | [8] -0.016

TMOD3 (UniProt Q9NYL9)
inactive: lapatinib -0.008 | pictilisib 0.038 | crizotinib -0.05 | [1] -0.004 | duvelisib -0.002 | gandotinib 0.014 | tozasertib -0.003 | doramapimod 0.036 | bafetinib -0.041 | [2] 0.022 | nilotinib -0.006 | [3] -0.009 | dasatinib 0.025 | [4] 0.015 | [5] -0.002 | quisinostat -0.086 | tipifarnib -0.011 | [6] 0.009 | [7] 0.009 | [8] -0.032

TOP3A (UniProt Q13472)
inactive: lapatinib 0.117 | pictilisib -0.02 | crizotinib -0.024 | [1] -0.066 | duvelisib 0.057 | gandotinib -0.088 | tozasertib 0.238 | doramapimod 0.053 | bafetinib 0.1 | [2] -0.009 | nilotinib -0.023 | [3] 0.018 | dasatinib 0 | [4] -0.02 | [5] -0.008 | quisinostat 0.022 | tipifarnib 0.06 | [6] -0.018 | [7] -0.041 | [8] 0.096

TOR4A (UniProt Q9NXH8)
inactive: lapatinib -0.033 | pictilisib -0.067 | crizotinib -0.081 | [1] -0.042 | duvelisib 0.018 | gandotinib -0.027 | tozasertib -0.069 | doramapimod 0.036 | bafetinib -0.015 | [2] 0.046 | nilotinib -0.074 | [3] 0.022 | dasatinib -0.033 | [4] 0.005 | [5] 0.011 | quisinostat -0.061 | tipifarnib -0.018 | [6] 0.039 | [7] 0.111 | [8] -0.001

TOM1 isoform 2 (UniProt O60784)
inactive: lapatinib 0.036 | pictilisib 0.007 | crizotinib -0.065 | [1] -0.009 | duvelisib 0.023 | gandotinib 0.019 | tozasertib -0.031 | doramapimod 0.045 | bafetinib -0.024 | [2] 0.029 | nilotinib -0.018 | [3] 0.035 | dasatinib -0.002 | [4] -0.003 | [5] -0.047 | quisinostat -0.087 | tipifarnib -0.053 | [6] 0.003 | [7] 0.045 | [8] -0.025

TPM3 isoform 2 (UniProt P06753)
inactive: lapatinib -0.012 | pictilisib 0.021 | crizotinib 0.093 | [1] 0.095 | duvelisib 0.003 | gandotinib -0.169 | tozasertib 0.067 | doramapimod 0.02 | bafetinib 0.055 | [2] -0.152 | nilotinib -0.048 | [3] 0.019 | dasatinib 0.012 | [4] -0.005 | [5] 0.014 | quisinostat 0.14 | tipifarnib 0.06 | [6] -0.024 | [7] -0.003 | [8] 0.047

TPM4 (UniProt P67936)
inactive: lapatinib -0.002 | pictilisib -0.043 | crizotinib 0.003 | [1] -0.001 | duvelisib -0.021 | gandotinib 0.039 | tozasertib -0.098 | doramapimod -0.029 | bafetinib -0.055 | [2] -0.018 | nilotinib 0.028 | [3] -0.068 | dasatinib 0.058 | [4] -0.028 | [5] -0.01 | quisinostat 0 | tipifarnib -0.004 | [6] -0.054 | [7] 0.007 | [8] -0.029

TMEM189 (UniProt A5PLL7)
inactive: lapatinib -0.02 | pictilisib -0.21 | crizotinib 0.067 | [1] -0.144 | duvelisib 0.329 | gandotinib 0.108 | tozasertib -0.058 | doramapimod 0.052 | bafetinib -0.15 | [2] 0.003 | nilotinib 0.023 | [3] 0.061 | dasatinib -0.001 | [4] -0.026 | [5] -0.198 | quisinostat -0.157 | tipifarnib 0.036 | [6] 0.062 | [7] 0.056 | [8] -0.032

TPD52L2 isoform 7 (UniProt O43399)
inactive: lapatinib 0.039 | pictilisib 0.003 | crizotinib 0.095 | [1] -0.124 | duvelisib -0.022 | tozasertib 0.043 | doramapimod 0.03 | bafetinib 0.139 | [2] 0.057 | nilotinib 0.022 | [3] 0.019 | dasatinib 0.056 | [4] 0.042 | [5] -0.009 | quisinostat 0.038 | tipifarnib -0.012 | [6] -0.022 | [7] -0.039 | [8] 0.049
active: gandotinib 0.222

TNFRSF10B (UniProt O14763)
inactive: lapatinib -0.003 | pictilisib -0.016 | crizotinib 0.031 | [1] -0.061 | duvelisib -0.01 | gandotinib 0.006 | tozasertib 0.086 | doramapimod -0.019 | bafetinib -0.034 | [2] 0.005 | nilotinib 0.01 | [3] -0.046 | dasatinib 0.054 | [4] 0.04 | [5] -0.028 | quisinostat 0.026 | tipifarnib -0.01 | [6] -0.067 | [7] 0.02 | [8] 0.001

Two entries drawn at random from those above:
TPM4 (UniProt P67936)
inactive: lapatinib -0.002 | pictilisib -0.043 | crizotinib 0.003 | [1] -0.001 | duvelisib -0.021 | gandotinib 0.039 | tozasertib -0.098 | doramapimod -0.029 | bafetinib -0.055 | [2] -0.018 | nilotinib 0.028 | [3] -0.068 | dasatinib 0.058 | [4] -0.028 | [5] -0.01 | quisinostat 0 | tipifarnib -0.004 | [6] -0.054 | [7] 0.007 | [8] -0.029

TPM3 isoform 2 (UniProt P06753)
inactive: lapatinib -0.012 | pictilisib 0.021 | crizotinib 0.093 | [1] 0.095 | duvelisib 0.003 | gandotinib -0.169 | tozasertib 0.067 | doramapimod 0.02 | bafetinib 0.055 | [2] -0.152 | nilotinib -0.048 | [3] 0.019 | dasatinib 0.012 | [4] -0.005 | [5] 0.014 | quisinostat 0.14 | tipifarnib 0.06 | [6] -0.024 | [7] -0.003 | [8] 0.047

(further entries)

TNFRSF10A (UniProt O00220)
inactive: lapatinib 0.038 | pictilisib -0.03 | crizotinib -0.025 | [1] 0.109 | duvelisib -0.024 | gandotinib -0.104 | tozasertib 0.045 | doramapimod 0.006 | bafetinib -0.024 | [2] -0.106 | nilotinib 0.067 | [3] 0.036 | dasatinib 0.03 | [4] 0.064 | [5] 0.02 | quisinostat 0.015 | tipifarnib -0.035 | [6] 0.011 | [7] 0 | [8] 0.029

TP53RK (UniProt Q96S44)
inactive: lapatinib -0.011 | pictilisib 0.026 | crizotinib 0.042 | [1] 0.042 | duvelisib -0.029 | gandotinib -0.041 | tozasertib -0.01 | doramapimod -0.029 | bafetinib -0.032 | [2] 0.035 | nilotinib 0.011 | [3] 0 | dasatinib 0.052 | [4] 0.047 | [5] 0.057 | quisinostat 0.002 | tipifarnib 0.048 | [6] 0.021 | [7] 0.041 | [8] -0.013

TMEM38B (UniProt Q9NVV0)
inactive: lapatinib -0.016 | pictilisib -0.023 | crizotinib -0.019 | [1] -0.217 | duvelisib 0.024 | gandotinib 0.159 | tozasertib -0.012 | doramapimod -0.043 | bafetinib 0.045 | [2] 0.167 | nilotinib -0.027 | [3] 0.026 | dasatinib 0.047 | [4] 0.027 | [5] -0.088 | quisinostat -0.016 | tipifarnib -0.037 | [6] 0.009 | [7] -0.028 | [8] -0.106

TNPO1 (UniProt Q92973)
inactive: lapatinib -0.022 | pictilisib 0.005 | crizotinib -0.003 | [1] 0.065 | duvelisib 0.023 | gandotinib -0.087 | tozasertib -0.018 | doramapimod 0.009 | bafetinib -0.008 | [2] -0.042 | nilotinib 0.005 | [3] -0.011 | dasatinib -0.028 | [4] -0.004 | [5] 0.016 | quisinostat -0.07 | tipifarnib -0.021 | [6] -0.001 | [7] 0.01 | [8] -0.025

From the supplement of paper PMC10849652
